Measured values from the supplement of paper PMC12889115.
Some of the results follow. These are raw signals, not scaled to a control.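 In the initial screen, polymyxin B was used at a concentration that permeabilizes Salmonella's outer membrane but not its inner membrane. Maximum growth was set by DMSO wells with or without polymyxin B. Since plates varied, data were ranked per plate, and compounds giving the lowest OD600 advanced as hits.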

Test system: Salmonella enterica serovar Typhimurium SL1344
Test: bacterial growth OD600 after 18 h with compound and polymyxin B; higher = more bacterial growth (less inhibition)
Settings: 50 µM, Mueller-Hinton broth

SMILES | bacterial growth OD600 (polymyxin B 0.75 µg/mL) | bacterial growth OD600 (polymyxin B 1 µg/mL)
COc1cccc(OC)c1CN1CCC(C(Cc2ccccc2Cl)N(C)C(=O)c2ccco2)CC1 (stereo unspecified) | 0.731 | 
O=C1CC(NCc2cc(F)ccc2-n2cccn2)CN1Cc1cccc(F)c1 (stereo unspecified) |  | 0.896
O=C(CCc1ccccc1)NCC1CC(Cc2ccc(F)cc2)=NO1 (stereo unspecified) | 0.878 | 
CCn1cc(CN2CCC(C3(C)NC(=O)N(Cc4cccc(OC)c4OC)C3=O)CC2)c(C)n1 (stereo unspecified) | 0.852 | 
CC(C)(CO)CNC(=O)C1CCC(=O)N(CC2CCCCC2)C1 (stereo unspecified) |  | 0.953
CC1(C)CC(CCNC(=O)CCC2(Cc3ccc(F)cc3)CCC(=O)N2)(c2ccccc2)CCO1 (stereo unspecified) | 0.804 | 
Cc1ncsc1CCC(=O)NCc1cccnc1Oc1ccc(F)cc1F | 0.833 | 
COc1ccc(CN2CCN(CCCn3cccn3)CC2CCO)cc1C (stereo unspecified) |  | 0.865
CCC(=O)C1CCCN(Cc2cnc(S(=O)(=O)CC)n2CCCc2ccccc2)C1 (stereo unspecified) |  | 1.16
OC1(Cc2cc(-c3ccccc3)no2)CCN(CC2CCCCC2)CC1 |  | 0.962
COc1ccccc1CN1CC(C(=O)NCCc2ccccc2Cl)CCC1=O (stereo unspecified) |  | 0.905
OCc1ccc(CN2CCCC(CCc3ccccc3)C2)o1 (stereo unspecified) | 0.851 | 
CCn1c(-c2cccnc2)nc2cc(NC(=O)COC)cc(C(=O)N3CCCC3c3nccs3)c21 (stereo unspecified) | 0.854 | 
CN(Cc1nc(Cc2cccc(C(F)(F)F)c2)no1)C(C1CC1)C1CC1 |  | 1
CCOC(=O)C1(Cc2ccccc2C)CCCN(C(=O)Nc2ccccc2)C1 (stereo unspecified) |  | 0.106
COC(=O)[C@@H](Nc1ccc(-c2nc(C3CC3)no2)cn1)c1ccccc1 | 0.362 | 

SMILES | bacterial growth OD600 (polymyxin B 0.75 µg/mL) | bacterial growth OD600 (polymyxin B 1 µg/mL)
CC1CN(C(=O)c2coc(COc3cccc(C(F)(F)F)c3)n2)CCN1C (stereo unspecified) |  | 0.989
CC(=O)c1cccc(OCc2cc(C(=O)N3CCN4CCCC4C3)n[nH]2)c1 (stereo unspecified) |  | 0.885
COc1ccc(CN2CCCC(CCC(=O)NCc3ccc(OC)cc3OC)C2)c(F)c1 (stereo unspecified) |  | 1.15
O=C(c1ccc(N2CCC(NCC3COc4ccccc4O3)CC2)cc1)N1CCOCC1 (stereo unspecified) | 0.91 | 
COCCC(=O)N1CCC(Oc2ccc(C(=O)N(C)C3CCCCC3)cc2)CC1 |  | 1.21
COc1cccc(CC2CN(C(=O)c3cc4ccccc4o3)CCO2)c1 (stereo unspecified) | 0.47 | 
COc1cc(OC)c(OC)cc1CN1CCOc2ccc(C(O)Cc3ccccc3)cc2C1 (stereo unspecified) | 0.007 | 
O=C(CCC1CCCN(Cc2c(F)ccc(F)c2F)C1)N1CCCC1 (stereo unspecified) |  | 0.854
C[C@@H]1CN(c2nncc(-c3ccc4ccccc4c3)n2)C[C@H](C)O1 |  | 1.02
COc1ccc(CCCN2C(=O)O[C@@H]3CN(c4cc(C)nc(N)n4)C[C@@H]32)cc1 | 0.806 | 
COc1cccc(OCc2nc(C(=O)N[C@@H]3C[C@H]3c3ccccc3)co2)c1 |  | 0.927
CN(C(=O)c1ccn(C)n1)C(Cc1ccccc1)C1CCN(Cc2cc(Cl)ccc2O)CC1 (stereo unspecified) | 0.675 | 
O=C(CCc1ccccc1)Nc1ccnn1C1CCN(C(=O)c2ccco2)CC1 |  | 0.917
COCCOC1CCN(C(=O)c2cn(C(c3ccccc3)c3ccccc3)nn2)CC1 |  | 0.873
Cc1cc(=O)c(C(=O)N2CCC(C3CCN(CC(C)(C)C)C3)CC2)c[nH]1 (stereo unspecified) |  | 0.998

Part of the list above in another layout.

| SMILES | bacterial growth OD600 (polymyxin B 0.75 µg/mL) | bacterial growth OD600 (polymyxin B 1 µg/mL) |
| --- | --- | --- |
| C[C@@H]1CN(c2nncc(-c3ccc4ccccc4c3)n2)C[C@H](C)O1 |  | 1.02 |
| COc1ccc(CCCN2C(=O)O[C@@H]3CN(c4cc(C)nc(N)n4)C[C@@H]32)cc1 | 0.806 |  |
